Like-named read-outs stand apart in the source and are kept apart here. Some results were stated once for a whole list of compounds, not compound by compound.
Legend:
Phytophthora infestans [1] = type: in vivo; conditions: 200 ppm; potato plants cv. Bintje, inoculated 6 days after application, assessed 9-11 days after application
Pythium ultimum = Pythium ultimum / liquid culture (seedling damping off); type: cell-based; conditions: 200 ppm; liquid culture in PDB, inhibition of growth determined photometrically 2-3 days after application
Plasmopara viticola [2] = test: Plasmopara viticola / grape / long lasting (grape downy mildew); type: in vivo; conditions: 200 ppm; grape seedlings cv. Gutedel, inoculated 6 days after application, assessed 11-13 days after application
Phytophthora infestans [3] = type: in vivo; conditions: 200 ppm; tomato leaf disks, inoculated 1 day after application, assessed 5-7 days after application
Phytophthora infestans [4] = type: in vivo; conditions: 200 ppm; potato plants cv. Bintje, inoculated 2 days after application, assessed 5-7 days after application
Plasmopara viticola [5] = test: Plasmopara viticola / grape / preventative (grape downy mildew); type: in vivo; conditions: 200 ppm; grape seedlings cv. Gutedel, inoculated one day after application, assessed 6-8 days after application
Plasmopara viticola [6] = test: Plasmopara viticola / grape / leaf disc preventative (grape downy mildew); type: in vivo; conditions: 200 ppm; grape vine leaf disks, inoculated 1 day after application, assessed 6-8 days after application

Measured: disease control

Cc1cc(C(F)(F)F)nn1CC(=O)N1CCC(c2nc(NC(=O)C3=C(O)CCCC3=O)cs2)CC1 [I.a.001, 2-hydroxy-6-oxo-cyclohex-1-enecarboxylic acid (2-{1-[2-(5-methyl-3-trifluoromethyl-pyrazol-1-yl)-acetyl]-piperidin-4-yl}-thiazol-4-yl)-amide]
at least 80%: all assays above

— US20130317064A1 (priority 2011, published 2013)
